At least one structure is not confirmed: it was looked up by name or label, or the drawing left a doubt.
Tested on: non-selective sigma receptor
Assay: σ radioligand binding assay ([3H]DTG)
Details: inhibition of control specific binding; at 1µM (concentration printed only in head of Cpd A); rat cerebral cortex

Row | SMILES | %inhibition σ [%]
1 | CNCCO[C@]1(c2ccccc2)C[C@H]2CC[C@]1(C)C2(C)C [Cpd D, (1R,2S,4R)-(-)-2-methylaminoethoxy-2-phenyl-1,7,7-trimethyl-bicyclo[2.2.1]heptane] | 54
2 | CNCCO[C@@]1(c2ccccc2)C[C@@H]2CC[C@@]1(C)C2(C)C [Cpd C, (1S,2R,4S)-(+)-2-methylaminoethoxy-2-phenyl-1,7,7-trimethyl-bicyclo[2.2.1]heptane] | 60

— patent EP1500391A1, “Therapeutic use of bicycloheptane derivatives” (NEURO3D, priority 2003, dated 2005)
